The amount applied is not stated for every result.
system: 60 kinds of different human cancer cells; test: NCI 60-cell drug screen, whole panel (One Dose Mean Graph); assay type: cell-based; details: 1.00E−5 Molar

Row | SMILES | Growth Percent, Delta [%] | Growth Percent, Range [%]
1 | CCSc1nc2ccc3c(c2[nH]1)C(=O)c1ccccc1C3=O [f1-1, 2-(Ethylthio)-1H-anthra[1,2-d]imidazole-6,11-dione] | 75.97 | 137.32
2 | CCCSc1nc2ccc3c(c2[nH]1)C(=O)c1ccccc1C3=O [f1-2, 2-(propylthio)-1H-anthra[1,2-d]imidazole-6,11-dione] | 69.57 | 113.73
3 | O=C1c2ccccc2C(=O)c2c1ccc1nc(SCCN3CCCC3)[nH]c21 [f1-11] | 112.25 | 172.48
4 | O=C1c2ccccc2C(=O)c2c1ccc1nc3n(c21)CCS3 [f3-1, 2-(2-N-ethylthio)-1H-anthra[1,2-d]imidazole-6,11-dione] | 40.19 | 73.56
5 | O=C1c2ccccc2C(=O)c2c1ccc1nc(S)[nH]c21 [f1-0, 2-Mercapto-1(3)H-anthra[1,2-d]imidazole-6,11-dione] | 49.19 | 91.13
6 | CN(C)CCCSc1nc2ccc3c(c2[nH]1)C(=O)c1ccccc1C3=O [f1-15, 2-(3-(dimethylamino)propylthio)-1H-anthra[1,2-d]imidazole-6,11-dione] | 79.00 | 146.09
